Over roughly 33,000 sequences, “E-score (-0.5 to 0.5)” has its median near -0.0059; the highest 2% begin near 0.26. This is one part of the list.

For the experiment, the target named is T1, Cin5 (UniProt P40917).
T1 sequence: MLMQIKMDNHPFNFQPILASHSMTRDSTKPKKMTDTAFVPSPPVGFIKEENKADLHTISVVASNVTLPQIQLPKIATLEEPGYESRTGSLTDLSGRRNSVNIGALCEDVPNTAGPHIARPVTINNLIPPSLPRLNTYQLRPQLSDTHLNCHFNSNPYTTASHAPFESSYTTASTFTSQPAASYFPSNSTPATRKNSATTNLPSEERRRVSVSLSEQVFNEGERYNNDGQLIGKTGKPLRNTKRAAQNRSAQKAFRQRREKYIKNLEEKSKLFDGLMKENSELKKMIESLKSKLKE
Briefly: PBM E-score (8-mer binding enrichment) (E-score (-0.5 to 0.5)); higher = stronger / more preferred TF binding. The note with it: protein concentration: 100 nM; construct: GST-full length. The gist of the method:
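PURExpress in vitro transcription/translation supplied GST-tagged yeast transcription factors, either full-length or DNA-binding domain. Applied at about 100-200 nM to universal all-10-mer Agilent arrays double-stranded by primer extension, the bound protein was detected with fluorescent anti-GST. E-scores, modified Wilcoxon-Mann-Whitney statistics, were given by the Universal PBM Analysis Suite to ungapped eight-base words pooled with their reverse complements after masliner normalisation.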
As to ATCCCTTA, the “PBM E-score” value was -0.092.

TCTTCAAA: the “PBM E-score” value is -0.0682.

AAGACGTG: the “PBM E-score” value amounted to 0.0389.

As for GCATAGTA, the “PBM E-score” value stood at 0.229.

With AGATTGAT, the “PBM E-score” value is 0.112.

For GCCGTCTA, the “PBM E-score” value is -0.0956.

With CATGTTGA, the “PBM E-score” value came to 0.293.

For the sequence AAGGAGCG, the “PBM E-score” value is -0.173.

GACGTTAC: the “PBM E-score” value stood at 0.0271.

Regarding GTCTGGAA, the “PBM E-score” value is -0.17.

Regarding GATATCCC, the “PBM E-score” value is -0.0407.

Take AATTCACC: the “PBM E-score” value turned out to be 0.122.

For AAGATGGC, the “PBM E-score” value stood at 0.0421.

Consider ATGATCGA, for which the “PBM E-score” value amounted to 0.0882.

For the sequence ACGGATCC, the “PBM E-score” value worked out at 0.116.

For the sequence CAATGTGC, the “PBM E-score” value was 0.00948.

Consider GATATGCA, for which the “PBM E-score” value amounted to 0.0435.

As to AGGGTACC, the “PBM E-score” value was -0.312.

For the sequence GCGACATA, the “PBM E-score” value was 0.0265.

In the case of TACCCTAA, the “PBM E-score” value is -0.0131.

In the case of GTGCAACA, the “PBM E-score” value is -0.157.

Regarding GTGTGATA, the “PBM E-score” value was 0.2.

For the sequence AGGTTTAT, the “PBM E-score” value came to 0.251.

Turning to CACTTACC, the “PBM E-score” value was 0.245.

Turning to CGGGGAAA, the “PBM E-score” value was 0.0961.

For TGCCATAA, the “PBM E-score” value stood at 0.224.

As to GAAGTAAC, the “PBM E-score” value stood at 0.119.

On to CGATGTTA, for which the “PBM E-score” value is 0.154.

As for CCTGTGCG, the “PBM E-score” value is -0.0861.

Regarding CAACTTAA, the “PBM E-score” value was 0.0452.

Turning to AGTAGAAA, the “PBM E-score” value was determined as 0.193.

Regarding GCGACCAC, the “PBM E-score” value is 0.0549.

In the case of AGAACCGA, the “PBM E-score” value was -0.00797.

GTACCCAA: the “PBM E-score” value was -0.00826.

Consider CACATCTA, for which the “PBM E-score” value stood at 0.196.

Regarding AGTATACC, the “PBM E-score” value is 0.0865.

GACTAGTC: the “PBM E-score” value is -0.228.

Consider CTGCCCTC, for which the “PBM E-score” value was -0.312.

CAGAACCC: the “PBM E-score” value worked out at 0.0132.

AATGTCCC: the “PBM E-score” value was -0.105.

For AGACCGGC, the “PBM E-score” value was -0.335.

Take GCATTTCA: the “PBM E-score” value came out at 0.0996.

In the case of AATCCGAA, the “PBM E-score” value amounted to 0.0614.

In the case of ATCCGTGG, the “PBM E-score” value was found to be 0.00752.

Take GATATGGA: the “PBM E-score” value was 0.244.

Turning to AGGTTCGG, the “PBM E-score” value was -0.17.

For the sequence AGGCGACA, the “PBM E-score” value was -0.138.

With ATACATTA, the “PBM E-score” value is 0.124.

On to AAGCTGGC, for which the “PBM E-score” value is -0.163.

For CAGGGAAA, the “PBM E-score” value turned out to be 0.0138.

Take GCGTAAAC: the “PBM E-score” value was 0.144.

For CCGCAGCG, the “PBM E-score” value is -0.191.

Consider GAACCGTA, for which the “PBM E-score” value was -0.192.

In the case of CTCGCTGA, the “PBM E-score” value is -0.0383.

Regarding ACTTTGGC, the “PBM E-score” value was -0.122.

For ACTATCGA, the “PBM E-score” value amounted to 0.037.

Turning to ATAAAACG, the “PBM E-score” value amounted to 0.153.

For AGGGGTGA, the “PBM E-score” value is -0.144.

For the sequence CAAACGGG, the “PBM E-score” value turned out to be 0.0273.

Turning to ACTACTGC, the “PBM E-score” value is -0.0248.

In the case of CCTCACAC, the “PBM E-score” value is -0.136.

CGAGCTCC: the “PBM E-score” value amounted to 0.0245.

Turning to ACATTGAC, the “PBM E-score” value worked out at 0.116.

Turning to CCAACTCA, the “PBM E-score” value is -0.0114.

GCATGAGA: the “PBM E-score” value worked out at 0.205.

GTTCCTAA: the “PBM E-score” value was -0.132.

Consider GGCACAAC, for which the “PBM E-score” value is -0.104.

Turning to CAAAGGTA, the “PBM E-score” value was -0.0912.

Regarding TGTTCCAA, the “PBM E-score” value is -0.0783.

With GCCTAGAA, the “PBM E-score” value is -0.114.

In the case of TCCTATAA, the “PBM E-score” value was determined as 0.109.

With CAATAATG, the “PBM E-score” value was 0.0624.

As to TGAAGAAA, the “PBM E-score” value was found to be 0.0943.

Regarding GAAGACAA, the “PBM E-score” value is 0.00891.

In the case of CAGACTGG, the “PBM E-score” value was -0.108.

For CCACATCC, the “PBM E-score” value is 0.077.

As to CTATCCGA, the “PBM E-score” value came out at 0.00159.

Regarding ACATTTCC, the “PBM E-score” value was found to be 0.0832.

As for GCGAGGGA, the “PBM E-score” value is -0.136.

For the sequence CCAAATCC, the “PBM E-score” value was -0.0421.

Take ACATGTTG: the “PBM E-score” value stood at 0.154.

For the sequence GATTCAGC, the “PBM E-score” value is 0.0231.

On to ATAGCGTC, for which the “PBM E-score” value was -0.13.

GCCACGCC: the “PBM E-score” value was -0.127.

Consider CACTTCGA, for which the “PBM E-score” value was found to be 0.0479.

As to CTACAGGC, the “PBM E-score” value was -0.209.
